# Test results published in PubChem BioAssay AID504467 (National Center for Advancing Translational Sciences (NCATS), 2011).
# Hit rate of the full screen: of about 330,000 compounds, about 7,700 (2.3%) were called active. This list was built around the results that the source calls inconclusive (neither active nor inactive); the mix of calls is not that of the screen. Calls follow the shape of the dose curve; as a rule, active = well fitted inhibition curve with a large enough effect; inconclusive = small, poorly fitted or top-dose-only effect, or effect the other way; inactive = flat fitted curve, though single readings scatter. Potencies beside an inconclusive call are fits to weak or partial responses and may not hold up.
# Assay: qHTS screen for small molecules that inhibit ELG1-dependent DNA repair in human embryonic kidney (HEK293T) cells expressing luciferase-tagged ELG1; also: nearly all actives have a fitted effect of over 55% in size
# Details: HEK293T ELG1-luciferase reporter, luminescence, 16 h, DNA damage induced by 5-fluorouridine; series mostly up to 46.1 µM
# Procedure, shortened: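 Reporter activity after DNA damage by 5-fluorouridine is monitored. Compound-treated cells incubate 16 hr at 37 °C, then ONE-Glo is added for 30 min before luminescence reading.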
# Potency is read from the fitted curve at half-maximal effect.
row,SMILES,Potency
1,Cc1ccc(NC(=O)COC(=O)Cn2cnc3c2c(=O)n(C)c(=O)n3C)c(Cl)c1,"inconclusive: 20.6 µM [activator, partial curve, poor fit]"
2,CCCCc1nc2cc(C(=O)N(C)C3CCOCC3)ccc2o1,"inconclusive: 20.6 µM [activator, partial curve]"
3,Cc1cc(N2CCN(C)CC2)ccc1NC(=O)c1c2c(nc3ccccc13)CCN(Cc1ccccc1)C2,"inconclusive: 6.51 µM [activator, single point]"
4,O=C(c1cc2c(ccc3ccccc32)o1)N1CCN(c2ncc(C(F)(F)F)cc2Cl)CC1,inactive
5,CC(c1nc2ccccc2c(=O)[nH]1)N1CCCN(S(=O)(=O)c2ccc(F)cc2)CC1 (stereo unspecified),"inconclusive: 22.4 µM [inhibitor, single point]"
6,C/C(Cl)=C\Cn1c(Nc2ccccc2)nc2c1c(=O)n(C)c(=O)n2C,active: 11.2 µM
7,COc1ccc(-c2nnn(CC(=O)N3CCN(c4ccccc4OC)CC3)n2)cc1OC,"inconclusive: 29.1 µM [inhibitor, single point]"
8,CCc1cc2c(=O)c(-c3nc4ccccc4n3C)coc2c(CN2CCCC(C)C2)c1O (stereo unspecified),inactive
9,CCOC(=O)C1(Cc2cccc(Cl)c2)CCCN(C(=O)c2ccc(C)nc2)C1 (stereo unspecified),inactive
10,Cc1c(C(=O)Nc2ccc(F)cc2)oc2ccc(S(=O)(=O)N3CCC4(CC3)OCCO4)cc12,active: 11.6 µM
11,CN(C(=O)C1CCC(=O)N(Cc2cccc(F)c2)C1)C1CCCCC1 (stereo unspecified),"inconclusive: 14.6 µM [activator, partial curve]"
12,CCOC(=O)c1cnc(-c2ccccc2)nc1N1CCOCC1,"inconclusive: 20.6 µM [inhibitor, partial curve, poor fit]"
13,COc1ccc([C@H]2CC(=O)C=C(c3cc4ccccc4c4ccccc34)C2)cc1,inactive
14,COc1ccccc1-c1cc2nc(C)cc(C)n2n1,inactive
15,CCCCCC(=O)Nc1cccc(S(=O)(=O)NC2=NCCCCC2)c1,inactive
16,COc1ccccc1NC(=O)Cn1nc(-c2ccncc2)nc1SCC(=O)NC1CCCC1,inactive
17,CC(C)CNc1nc2c(c(=O)n(C)c(=O)n2C)n1Cc1cccc(Br)c1,"inconclusive: 25.9 µM [inhibitor, single point]"
18,O=P(CCCO)(Cc1ccccc1)Cc1ccccc1,inactive
19,O=c1cc(-c2ccccc2)oc2ccccc12,"inconclusive: 14.6 µM [activator, partial curve]"
20,O=C(Nc1nnc(C2CC2)s1)c1ccccn1,"inconclusive: 8.2 µM [activator, partial curve]"
21,NC(=O)c1ccccc1NC(=O)c1ccc2ccccc2c1,"inconclusive: 2.24 µM [activator, partial curve, poor fit]"
22,CCc1cccc(NC(=O)Cn2c(=O)n(CCC(=O)NCC3CCCO3)c(=O)c3cc(OC)c(OC)cc32)c1 (stereo unspecified),"inconclusive: 18.3 µM [inhibitor, single point]"
23,O=C(CN1CCN(S(=O)(=O)c2ccc(Br)cc2)CC1)Nc1ccccc1C(=O)c1ccccc1,"inconclusive: 16.4 µM [inhibitor, single point]"
24,Nc1ccccc1C(=O)N1CCc2ccccc21,"inconclusive: 11.2 µM [activator, partial curve]"

# Filtered by structure, the entries above with a halogen (9)
row,SMILES,Potency
1,Cc1ccc(NC(=O)COC(=O)Cn2cnc3c2c(=O)n(C)c(=O)n3C)c(Cl)c1,"inconclusive: 20.6 µM [activator, partial curve, poor fit]"
4,O=C(c1cc2c(ccc3ccccc32)o1)N1CCN(c2ncc(C(F)(F)F)cc2Cl)CC1,inactive
5,CC(c1nc2ccccc2c(=O)[nH]1)N1CCCN(S(=O)(=O)c2ccc(F)cc2)CC1 (stereo unspecified),"inconclusive: 22.4 µM [inhibitor, single point]"
6,C/C(Cl)=C\Cn1c(Nc2ccccc2)nc2c1c(=O)n(C)c(=O)n2C,active: 11.2 µM
9,CCOC(=O)C1(Cc2cccc(Cl)c2)CCCN(C(=O)c2ccc(C)nc2)C1 (stereo unspecified),inactive
10,Cc1c(C(=O)Nc2ccc(F)cc2)oc2ccc(S(=O)(=O)N3CCC4(CC3)OCCO4)cc12,active: 11.6 µM
11,CN(C(=O)C1CCC(=O)N(Cc2cccc(F)c2)C1)C1CCCCC1 (stereo unspecified),"inconclusive: 14.6 µM [activator, partial curve]"
17,CC(C)CNc1nc2c(c(=O)n(C)c(=O)n2C)n1Cc1cccc(Br)c1,"inconclusive: 25.9 µM [inhibitor, single point]"
23,O=C(CN1CCN(S(=O)(=O)c2ccc(Br)cc2)CC1)Nc1ccccc1C(=O)c1ccccc1,"inconclusive: 16.4 µM [inhibitor, single point]"

# (next part)

row,SMILES,Potency
1,COc1ccc(OCC(=O)OCC(=O)Nc2ccc3[nH]c(=O)[nH]c3c2)cc1,"inconclusive: 32.6 µM [activator, partial curve, poor fit]"
2,Cc1ccc(S(=O)(=O)NC2CC2)cc1,"inconclusive: 0.164 µM [activator, partial curve, poor fit]"
3,O=C(O)/C=C/C(=O)Nc1ccc(S(=O)(=O)N2CCCC2)cc1,inactive
4,CCOC(=O)C1=C(CN2CCSCC2)NC(=O)NC1c1cccc([N+](=O)[O-])c1 (stereo unspecified),"inconclusive: 6.51 µM [inhibitor, single point]"
5,CCOc1ccc(CCNS(=O)(=O)c2ccc3c(c2)oc(=O)n3C)cc1OCC,inactive
6,Cn1c(/N=C/c2cc(Cl)ccc2O)nc2ccccc21,inactive
7,COC(=O)c1cn(NC(=O)Cc2ccccc2Br)c(=O)c2ccccc12,inactive
8,COc1ccc(C)cc1NC(=O)NCCCCc1ccccc1,"inconclusive: 13 µM [inhibitor, partial curve, poor fit]"
9,O=C(c1cccs1)N1CCN(c2ncc(C(F)(F)F)cc2Cl)CC1,inactive
10,COc1ccc(C(=O)CNc2cccc(F)c2)cc1,"inconclusive: 20.6 µM [activator, partial curve]"
11,CC1CCCN(C(=O)CSc2ncccn2)C1 (stereo unspecified),"inconclusive: 29.1 µM [activator, single point]"
12,CCCN(CCC)CCNC(=O)CCC(=O)Nc1ccc2nc(N3CCOCC3)cc(C)c2c1,"inconclusive: 18.3 µM [activator, partial curve]"
13,Cc1ccc2nc(N3CCN(C(=O)CCC(=O)O)CC3)nc(-c3ccccc3)c2c1,inactive
14,CCc1ccc(-c2nnn(CCC#N)n2)cc1,"inconclusive: 29.1 µM [activator, single point]"
15,Clc1ccc(-n2ncc3c(N4CCCCCC4)ncnc32)cc1,"inconclusive: 0.259 µM [activator, partial curve]"
16,CCc1ccc(NC(=O)c2ccc(F)c(S(=O)(=O)N(CC)c3ccccc3)c2)cc1,"inconclusive: 23.1 µM [inhibitor, partial curve, poor fit]"
17,Cn1cccc1C(=O)Nc1ccc(Cl)c(S(=O)(=O)N2CCCCC2)c1,"inconclusive: 18.3 µM [inhibitor, single point]"
18,C[C@@H]1C(c2ccc(F)cc2)=NN(c2ccc(Br)cc2)[C@H]1C(=O)N1CCOC1=O,"inconclusive: 16.4 µM [inhibitor, partial curve]"
19,N#C/C(=C\c1ccncc1)c1nc2ccccc2[nH]1,inactive
20,CC(=O)Nc1ccc(S(=O)(=O)N2CCN(c3nnnn3-c3ccccc3)CC2)cc1,"inconclusive: 32.6 µM [activator, partial curve, poor fit]"
21,Cc1cc(NC(=O)COC(=O)CCNS(=O)(=O)c2ccccc2)n(-c2ccccc2)n1,inactive
22,O=C(Cc1cccs1)Nc1nnc(-c2ccc(F)cc2)s1,"inconclusive: 9.2 µM [activator, partial curve]"
23,Cc1cc(C)c(C)c(S(=O)(=O)N(C)C2CCN(C)CC2)c1C,inactive
24,COc1ccc(CC(=O)Nc2ccc(C(C)=O)cc2)cc1,"inconclusive: 20.6 µM [activator, single point]"

# A second format for 2 compounds above:
row	SMILES	Potency
9	CCOC(=O)C1(Cc2cccc(Cl)c2)CCCN(C(=O)c2ccc(C)nc2)C1 (stereo unspecified)	inactive
9	O=C(c1cccs1)N1CCN(c2ncc(C(F)(F)F)cc2Cl)CC1	inactive

# (cont.)

row,SMILES,Potency
1,c1ccc2c(N3CCOCC3)c3c(nc2c1)CCC3,inactive
2,O=C(O)C1=CC(=C(c2ccc(O)c(C(=O)O)c2)c2ccc(O)c(C(=O)O)c2)C=CC1=O,inactive
3,O=C(NC1CCCC1)c1cc(-c2ccccc2)on1,"inconclusive: 18.3 µM [activator, partial curve]"
4,COc1ccccc1NS(=O)(=O)c1cc([N+](=O)[O-])ccc1N/N=C/c1c[nH]c2ccccc12,"inconclusive: 29.1 µM [inhibitor, single point]"
5,Cc1ccc(C)n1-c1ccc(-c2nnco2)cc1,inactive
6,O=C(OCC(=O)N1CCOCC1)c1ccc(Cl)cc1[N+](=O)[O-],inactive
7,CN([C@@H](Cc1ccc(OS(=O)(=O)c2cccc3cnccc23)cc1)C(=O)N1CCN(c2ccccc2)CC1)S(=O)(=O)c1cccc2cnccc12,active: 9.2 µM
8,Cc1cc(OCc2cc(C(=O)N3CCN(C)C(=O)[C@@H]3C)no2)cc(C)c1Cl,inactive
9,C#CCN(C(=O)c1cc(COc2ccc(C)c(C)c2)on1)C1CCCCC1,inactive
10,O=c1c2sccc2nc(SCc2cc(=O)n3cc(Cl)ccc3n2)n1Cc1ccccn1,"inconclusive: 20.6 µM [activator, partial curve]"
11,Cc1nccn1CC(O)COc1ccccc1 (stereo unspecified),inactive
12,CCCC(=O)NC(Nc1ccccc1F)C(Cl)(Cl)Cl (stereo unspecified),"inconclusive: 25.9 µM [inhibitor, partial curve, poor fit]"
13,O=C(NCCCN1CCCC1)c1ccc2c(Cl)c3c(nc2c1)CCCC3,inactive
14,Cc1ccc(OCC(=O)Nc2c(C)nn(-c3ccccc3)c2C)c(Br)c1,"inconclusive: 16.4 µM [inhibitor, partial curve, poor fit]"
15,COCCCNC(=O)Cn1c(=O)n(Cc2ccc(C(=O)NCCc3ccc(OC)c(OC)c3)cc2)c(=O)c2ccccc21,"inconclusive: 2.06 µM [activator, full curve]"
16,CCn1c(C)c(C)c2cc(C(=O)NCCN3CCOCC3)ccc21,"inconclusive: 23.1 µM [activator, single point]"
17,CC(C)(C)NC(=O)C(c1ccncc1)N(C(=O)CNC(=O)c1ccco1)c1ccc2c(c1)OCO2 (stereo unspecified),"inconclusive: 8.2 µM [activator, partial curve, poor fit]"
18,CC(C)C(NC(=O)C12CC3CC(CC(C3)C1)C2)C(=O)NC1=NCCS1 (stereo unspecified),"inconclusive: 1.16 µM [activator, full curve, poor fit]"
19,C#Cc1ccc([C@H]2C=C(C(=O)N3CCN(Cc4ccccc4)CC3)O[C@@H](OCc3ccc(CO)cc3)C2)cc1,"inconclusive: 20.6 µM [inhibitor, single point]"
20,O=C(Nc1ccon1)Nc1ccccc1C(F)(F)F,inactive
21,COc1ccc(NC(=O)COC(=O)CCNC(=O)c2ccco2)cc1Cl,inactive
22,CCc1ccccc1OCC(=O)Nc1cc(S(=O)(=O)N2CCOCC2)ccc1N1CCCCC1,"inconclusive: 11.6 µM [inhibitor, partial curve]"
23,Cc1nn(C)c(C)c1S(=O)(=O)Nc1ccc2c(c1)OCO2,"inconclusive: 14.6 µM [activator, partial curve, poor fit]"
